PMC12448893
No constants are given. Whether binding was seen depends on the method and setting. Binding seen in cells or lysates may run through a third protein. Some binding calls cover weakened binding; strength is not graded here. Each block holds one molecule with its values, some of them ahead of it.

Protein sequences, listed by entry. Tags and fused reporters are not part of them. Lines headed by an entry give the natural chain unless they say otherwise; changes in a name come on top.
UniProt Q13547: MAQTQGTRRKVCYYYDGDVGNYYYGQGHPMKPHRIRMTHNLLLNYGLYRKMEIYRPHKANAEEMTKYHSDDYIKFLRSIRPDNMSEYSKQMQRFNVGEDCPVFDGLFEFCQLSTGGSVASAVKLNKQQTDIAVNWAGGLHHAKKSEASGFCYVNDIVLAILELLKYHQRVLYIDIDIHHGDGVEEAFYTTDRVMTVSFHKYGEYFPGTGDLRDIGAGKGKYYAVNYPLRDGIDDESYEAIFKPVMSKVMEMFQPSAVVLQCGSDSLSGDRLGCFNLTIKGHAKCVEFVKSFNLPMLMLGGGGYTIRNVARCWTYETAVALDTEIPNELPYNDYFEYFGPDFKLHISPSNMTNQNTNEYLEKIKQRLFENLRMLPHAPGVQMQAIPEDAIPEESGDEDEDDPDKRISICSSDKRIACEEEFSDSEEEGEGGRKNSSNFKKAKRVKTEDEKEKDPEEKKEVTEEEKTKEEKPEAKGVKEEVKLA
UniProt Q8K4B0: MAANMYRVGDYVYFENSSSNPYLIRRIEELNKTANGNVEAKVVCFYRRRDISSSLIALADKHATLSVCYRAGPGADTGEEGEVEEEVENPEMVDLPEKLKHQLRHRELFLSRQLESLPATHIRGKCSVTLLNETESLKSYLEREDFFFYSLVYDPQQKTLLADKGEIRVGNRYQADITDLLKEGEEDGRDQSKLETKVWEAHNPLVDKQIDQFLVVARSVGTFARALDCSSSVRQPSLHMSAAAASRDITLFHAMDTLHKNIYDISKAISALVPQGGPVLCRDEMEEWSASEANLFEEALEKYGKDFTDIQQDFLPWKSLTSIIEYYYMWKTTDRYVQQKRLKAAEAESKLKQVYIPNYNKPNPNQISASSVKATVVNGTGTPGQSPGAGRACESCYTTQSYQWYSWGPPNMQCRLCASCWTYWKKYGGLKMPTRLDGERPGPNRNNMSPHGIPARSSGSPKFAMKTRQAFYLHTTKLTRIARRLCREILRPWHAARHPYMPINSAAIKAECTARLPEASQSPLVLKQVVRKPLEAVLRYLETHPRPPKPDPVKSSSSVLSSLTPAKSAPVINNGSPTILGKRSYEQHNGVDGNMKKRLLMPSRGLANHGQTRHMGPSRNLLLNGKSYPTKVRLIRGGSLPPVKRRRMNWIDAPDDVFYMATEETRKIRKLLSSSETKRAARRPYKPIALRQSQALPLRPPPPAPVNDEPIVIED

Key:
Test in all cases: co-IP; Flag IP of HDAC1-Flag WT, Y48E or E63R from extracts of Hdac1/2 DKO mouse ESCs 5 days after OHT; coIP buffer 250 mM NaCl, 20 mM Tris-HCl pH 7.5, 0.5% IGEPAL, 1 mM EDTA; 4°C overnight; western blotting of endogenous partners; n = 4
[1] = target: HDAC1-Flag (wild type), stably expressed in Hdac1/2 double knockout mouse ESCs (UniProt Q13547)
[2] = target: HDAC1–Y48E (Flag), stably expressed in Hdac1/2 double knockout mouse ESCs (UniProt Q13547)
[3] = target: HDAC1–E63R (Flag), stably expressed in Hdac1/2 double knockout mouse ESCs (UniProt Q13547)

binding [1]: binds | binding [2]: no binding
Molecule: MTA1 (endogenous, mouse ESCs) (from UniProt Q8K4B0 1-715)

binding [1]: binds | binding [3]: no binding | binding [2]: no binding
B1: DNTTIP1 (endogenous, mouse ESCs) (protein, UniProt Q99LB0 1-328)
chain: MGATGDTEQPRGPGGAERGGLELGDAGAAGQPVLTNPWNIMIKHRQVQRRGRRSQMTTSFTDPAISMDLLRAVLQPSINEEIQGVFNKYMKFFQKAALNVRDNVGEEVDAEQLIQEACRSCLEQAKLLFSDGEKVIPRLAHELPGIKRGRQAEEESHRGSPIPKKRKGRPPGHVLSNDRAAAGMVWKQKSCEPIRREGPKWDPARLNESTTFVLGSRANKALGMGGTRGRIYIKHPHLFKYAADPQDKHWLAEQHHMRATGGKMAYLLIEEDIRDLAASDDYRGCLDLKLEELKSFVLPSWMVEKMRKYMETLRTENEHRAAEAPPQT

binding [1]: binds | binding [3]: binds | binding [2]: binds
B2: SIN3A (endogenous, mouse ESCs) (protein, UniProt Q60520 1-1274)
chain: MKRRLDDQESPVYAAQQRRIPGSTEAFSHQHRVLAPAPPVYEAVSETMQSATGIQYSVAPNYQVSAVPQSSGSHGPAIAAVHSSHHHPTAVQPHGGQVVQSHAHPAPPVAPVQGQQQFQRLKVEDALSYLDQVKLQFGSQPQVYNDFLDIMKEFKSQSIDTPGVISRVSQLFKGHPDLIMGFNTFLPPGYKIEVQTNDMVNVTTPGQVHQIPTHGIQPQPQPPPQHPSQPSSQSAPTPAQPAPQPTAAKVSKPSQLQAHTPASQQTPPLPPYASPRSPPVQPHTPVTISLGTAPSLQNNQPVEFNHAINYVNKIKNRFQGQPDIYKAFLEILHTYQKEQRNAKEAGGNYTPALTEQEVYAQVARLFKNQEDLLSEFGQFLPDANSSVLLSKTTAEKVDSVRNDHGGTVKKPQLNNKPQRPSQNGCQIRRHSGTGATPPVKKKPKLMSLKESSMADASKHGVGTESLFFDKVRKALRSAEAYENFLRCLVIFNQEVISRAELVQLVSPFLGKFPELFNWFKNFLGYKESVHLESFPKERATEGIAMEIDYASCKRLGSSYRALPKSYQQPKCTGRTPLCKEVLNDTWVSFPSWSEDSTFVSSKKTQYEEHIYRCEDERFELDVVLETNLATIRVLEAIQKKLSRLSAEEQAKFRLDNTLGGTSEVIHRKALQRIYADKAADIIDGLRKNPSIAVPIVLKRLKMKEEEWREAQRGFNKVWREQNEKYYLKSLDHQGINFKQNDTKVLRSKSLLNEIESIYDERQEQATEENAGVPVGPHLSLAYEDKQILEDAAALIIHHVKRQTGIQKEDKYKIKQIMHHFIPDLLFAQRGDLSDVEEEEEEEMDVDEATGAPKKHNGVGGSPPKSKLLFSNTAAQKLRGMDEVYNLFYVNNNWYIFMRLHQILCLRLLRICSQAERQIEEENREREWEREVLGIKRDKSDSPAIQLRLKEPMDVDVEDYYPAFLDMVRSLLDGNIDSSQYEDSLREMFTIHAYIAFTMDKLIQSIVRQLQHIVSDEVCVQVTDLYLAENNNGATGGQLNSQTSRSLLESAYQRKAEQLMSDENCFKLMFIQSQGQVQLTVELLDTEEENSDDPVEAERWSDYVERYMSSDTTSPELREHLAQKPVFLPRNLRRIRKCQRGREQQEKEGKEGNSKKTMENVESLDKLECRFKLNSYKMVYVIKSEDYMYRRTALLRAHQSHERVSKRLHQRFQAWVDKWTKEHVPREMAAETSKWLMGEGLEGLVPCTTTCDTETLHFVSINKYRVKYGTVFKAP
